Experimental data as given in paper PMC11589570, “Critical assessment of LC3/GABARAP ligands used for degrader development and ligandability of LC3/GABARAP binding pockets” (Nature Communications, 2024).
Where “and” joins values, the source holds several entries; their conditions need not be identical. Equal values may be shown once. This continues a long series; more values of the same kind are listed elsewhere.

Tested on: U2OS cells
Assay: Cell growth assay (IncuCyte confluence over 72 h)
Type: cell-based
Parameters: key: % of well area covered by cells (confluence)
Conditions: listed as KT1
Method in brief: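 U2OS cells were grown in DMEM with 10% FBS for 24 h before treatment. Confluence was then tracked by IncuCyte phase imaging over 72 h and expressed as % of well area covered by cells. Each point is the average of three wells.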

With `Cc1ccc(C)c(S(=O)(=O)Nc2cc(SCC(=O)O)c(O)c3ccccc23)c1` [compound 8] the U2OS cell growth (1 uM, time 72 h) was 91.9216 and 92.2442 and 93.6054, the U2OS cell growth (3 uM, time 12 h) was 40.267 and 32.3836 and 41.3396 and the U2OS cell growth (3 uM, time 14 h) was 34.853 and 34.0718 and 37.7724. For the same molecule, the U2OS cell growth (3 uM, time 16 h) was 31.8641 and 28.4036 and 35.1848, the U2OS cell growth (3 uM, time 18 h) was 37.5506 and 37.8606 and 38.5873 and the U2OS cell growth (3 uM, time 20 h) was 35.6491 and 35.0575 and 40.0985. The U2OS cell growth (3 uM, time 22 h) was 37.963 and 32.2641 and 40.2201, the U2OS cell growth (3 uM, time 24 h) was 45.7504 and 49.0443 and 56.404 and the U2OS cell growth (3 uM, time 26 h) was 47.3243 and 43.5312 and 51.7633. For the same molecule, the U2OS cell growth (3 uM, time 28 h) was 43.5279 and 44.4572 and 46.9739, the U2OS cell growth (3 uM, time 30 h) was 46.5448 and 42.2809 and 49.7037 and the U2OS cell growth (3 uM, time 32 h) was 41.1954 and 40.0455 and 61.2249. For the same molecule, the U2OS cell growth (3 uM, time 34 h) was 57.7539 and 61.6201 and 62.1621, the U2OS cell growth (3 uM, time 36 h) was 50.8759 and 41.5972 and 59.5336 and the U2OS cell growth (3 uM, time 38 h) was 49.2293 and 46.4623 and 60.8979. For the same molecule, the U2OS cell growth (3 uM, time 40 h) was 52.5528 and 49.386 and 53.6056, the U2OS cell growth (3 uM, time 42 h) was 66.9634 and 77.0253 and 74.5196 and the U2OS cell growth (3 uM, time 44 h) was 57.6905 and 52.4813 and 68.7199. For the same molecule, the U2OS cell growth (3 uM, time 46 h) was 65.3637 and 53.2489 and 67.958, the U2OS cell growth (3 uM, time 48 h) was 60.5354 and 56.8002 and 72.6777 and the U2OS cell growth (3 uM, time 50 h) was 73.2165 and 64.8625 and 79.1572. For the same molecule, the U2OS cell growth (3 uM, time 52 h) was 73.4279 and 72.5178 and 87.2757, the U2OS cell growth (3 uM, time 54 h) was 83.6876 and 76.472 and 87.5858 and the U2OS cell growth (3 uM, time 56 h) was 89.0887 and 87.4003 and 95.878. For the same molecule, the U2OS cell growth (3 uM, time 58 h) was 85.0275 and 83.3443 and 95.3055, the U2OS cell growth (3 uM, time 60 h) was 90.1625 and 92.9328 and 94.7173 and the U2OS cell growth (3 uM, time 62 h) was 90.2637 and 97.3638 and 98.1064. For the same molecule, the U2OS cell growth (3 uM, time 64 h) was 94.0986 and 93.1569 and 98.4601, the U2OS cell growth (3 uM, time 66 h) was 83.3318 and 83.9594 and 91.7465 and the U2OS cell growth (3 uM, time 68 h) was 94.8286 and 93.8527 and 98.7589. The U2OS cell growth (3 uM, time 70 h) was 90.3246 and 93.1255 and 91.9588, the U2OS cell growth (3 uM, time 72 h) was 97.2578 and 99.5454 and 98.0911 and the U2OS cell growth (5 uM, time 12 h) was 49.625 and 41.7527 and 41.0637. For the same molecule, the U2OS cell growth (5 uM, time 14 h) was 42.4571 and 42.57 and 41.97, the U2OS cell growth (5 uM, time 16 h) was 40.6444 and 46.2923 and 32.3053 and the U2OS cell growth (5 uM, time 18 h) was 54.2032 and 38.3371 and 47.1798. For the same molecule, the U2OS cell growth (5 uM, time 20 h) was 41.4178 and 46.6665 and 35.5461, the U2OS cell growth (5 uM, time 22 h) was 44.2737 and 46.5681 and 34.0203 and the U2OS cell growth (5 uM, time 24 h) was 53.7705 and 51.6182 and 40.8114. For the same molecule, the U2OS cell growth (5 uM, time 26 h) was 47.6218 and 47.8592 and 37.868, the U2OS cell growth (5 uM, time 28 h) was 50.627 and 52.9572 and 40.8164 and the U2OS cell growth (5 uM, time 30 h) was 54.0507 and 47.045 and 40.6333. For the same molecule, the U2OS cell growth (5 uM, time 32 h) was 50.5745 and 62.5204 and 45.0707, the U2OS cell growth (5 uM, time 34 h) was 61.2376 and 60.6974 and 55.7697 and the U2OS cell growth (5 uM, time 36 h) was 57.0936 and 55.6137 and 49.6811. The U2OS cell growth (5 uM, time 38 h) was 63.5475 and 62.6945 and 58.8156, the U2OS cell growth (5 uM, time 40 h) was 59.1563 and 74.5387 and 47.3816 and the U2OS cell growth (5 uM, time 42 h) was 69.6038 and 69.5872 and 59.3097. For the same molecule, the U2OS cell growth (5 uM, time 44 h) was 65.6561 and 72.3046 and 56.9204, the U2OS cell growth (5 uM, time 46 h) was 67.5278 and 65.2168 and 57.2927 and the U2OS cell growth (5 uM, time 48 h) was 67.6641 and 74.4823 and 69.2803. For the same molecule, the U2OS cell growth (5 uM, time 50 h) was 75.9912 and 76.6871 and 60.826, the U2OS cell growth (5 uM, time 52 h) was 79.9202 and 72.5337 and 66.0805 and the U2OS cell growth (5 uM, time 54 h) was 80.4849 and 77.9904 and 70.9848. For the same molecule, the U2OS cell growth (5 uM, time 56 h) was 89.2278 and 91.1795 and 82.1304, the U2OS cell growth (5 uM, time 58 h) was 89.1429 and 89.0084 and 78.3629 and the U2OS cell growth (5 uM, time 60 h) was 92.9919 and 92.0892 and 83.8822. The U2OS cell growth (5 uM, time 62 h) was 94.5617 and 97.487 and 88.7359, the U2OS cell growth (5 uM, time 64 h) was 93.791 and 91.2897 and 86.756 and the U2OS cell growth (5 uM, time 66 h) was 91.1466 and 89.2407 and 83.3396. The U2OS cell growth (5 uM, time 68 h) was 92.8599 and 90.4424 and 86.3984, the U2OS cell growth (5 uM, time 70 h) was 91.6599 and 92.2552 and 79.6157 and the U2OS cell growth (5 uM, time 72 h) was 97.2472 and 98.8518 and 91.2384. The U2OS cell growth (10 uM, time 12 h) was 37.189 and 40.4648 and 52.7027, the U2OS cell growth (10 uM, time 14 h) was 34.3839 and 35.6896 and 48.9861 and the U2OS cell growth (10 uM, time 16 h) was 30.2325 and 30.2461 and 41.4865. For the same molecule, the U2OS cell growth (10 uM, time 18 h) was 33.1337 and 32.9389 and 52.3703, the U2OS cell growth (10 uM, time 20 h) was 30.7018 and 30.0617 and 37.8167 and the U2OS cell growth (10 uM, time 22 h) was 30.839 and 28.2137 and 49.5138. For the same molecule, the U2OS cell growth (10 uM, time 24 h) was 30.6121 and 29.1376 and 40.5474, the U2OS cell growth (10 uM, time 26 h) was 35.7424 and 30.4722 and 42.0804 and the U2OS cell growth (10 uM, time 28 h) was 33.4782 and 30.921 and 43.6039. The U2OS cell growth (10 uM, time 30 h) was 32.5645 and 30.3286 and 34.5035, the U2OS cell growth (10 uM, time 32 h) was 30.2055 and 31.8237 and 33.5677 and the U2OS cell growth (10 uM, time 34 h) was 37.5837 and 43.6484 and 51.3932. For the same molecule, the U2OS cell growth (10 uM, time 36 h) was 29.8306 and 34.6824 and 40.9149, the U2OS cell growth (10 uM, time 38 h) was 32.1525 and 33.2716 and 41.3603 and the U2OS cell growth (10 uM, time 40 h) was 30.1408 and 31.5292 and 33.2407. The U2OS cell growth (10 uM, time 42 h) was 32.3289 and 35.2672 and 47.5823, the U2OS cell growth (10 uM, time 44 h) was 28.9743 and 31.2931 and 43.4691 and the U2OS cell growth (10 uM, time 46 h) was 29.0841 and 30.5391 and 36.6007. The U2OS cell growth (10 uM, time 48 h) was 24.5423 and 29.6196 and 39.5328, the U2OS cell growth (10 uM, time 50 h) was 28.0997 and 29.0734 and 41.0634 and the U2OS cell growth (10 uM, time 52 h) was 28.7511 and 30.391 and 37.1951. For the same molecule, the U2OS cell growth (10 uM, time 54 h) was 27.2658 and 29.7979 and 37.5684, the U2OS cell growth (10 uM, time 56 h) was 36.6921 and 35.9497 and 60.0919 and the U2OS cell growth (10 uM, time 58 h) was 32.8096 and 31.3596 and 43.7845. The U2OS cell growth (10 uM, time 60 h) was 33.0375 and 33.3179 and 45.0177, the U2OS cell growth (10 uM, time 62 h) was 29.8759 and 33.854 and 41.4437 and the U2OS cell growth (10 uM, time 64 h) was 32.0035 and 31.8796 and 42.046. For the same molecule, the U2OS cell growth (10 uM, time 66 h) was 26.7489 and 31.2423 and 38.6894, the U2OS cell growth (10 uM, time 68 h) was 27.2964 and 32.6835 and 34.0769 and the U2OS cell growth (10 uM, time 70 h) was 28.8298 and 27.5404 and 33.5399. The U2OS cell growth (10 uM, time 72 h) was 32.2094 and 34.017 and 40.5956.
